Measurements reported in PubChem BioAssay AID1508597 (Cure First, 2020).

Screen: 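Survival screen with siRNA in ovarian cancer cells derived from patients, with or without rucaparib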 (primary screen)
Cell system: human ovarian carcinoma lines grown from tumours: OCI-P5x (papillary serous) and OCI-C5x (clear cell)
Reagents: siRNA pool against human genes, 1.25 pmol siRNA per well
Duration: 72 h or 96 h, depending on the cell culture
Conditions: rucaparib 20 µM (about IC30) or vehicle, present until read-out
Rucaparib or vehicle: Vehicle
Cell line: OCI-P5x (serous)
Measured: 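Luminescent ATP-based viability assay read 72 or 96 h after transfection, depending on culture, given as normalised percent viability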
Direction: viability, normalised: higher = more viable cells remaining
Hit rule: 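a well counts as a hit if its normalised viability is under 80 percent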
Meaning of the calls: active = viability under 80%; inactive = viability 80% or more
This is an unselected part of the about 2,100 reagents, under one of the conditions tested. 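Calls flag viability under 80% in either arm, not effects specific to rucaparib; the reference for percent is not stated.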 Entries without a mark were called inactive. Some reagents were tested in more than one well and are listed for each. Not given: the 100% reference.

CARD14 (GeneID 79092), technical replicate 1 gave viability, normalised (%) = 85.3.
For CARD14 (GeneID 79092), technical replicate 2, the entry reads viability, normalised (%) = 82.8.
For CARD14 (GeneID 79092), technical replicate 3 the deposit lists viability, normalised (%) = 60.3 (active).
DDX18 (GeneID 8886), technical replicate 1 gave viability, normalised (%) = 58.5 (active).
For DDX18 (GeneID 8886), technical replicate 2, the entry reads viability, normalised (%) = 71.5 (active).
DDX18 (GeneID 8886), technical replicate 3 showed viability, normalised (%) = 80.3.
SIK2 (GeneID 23235), technical replicate 1 showed viability, normalised (%) = 69.1 (active).
With SIK2 (GeneID 23235), technical replicate 2 the deposit lists viability, normalised (%) = 69.7 (active).
SIK2 (GeneID 23235), technical replicate 3 scored viability, normalised (%) = 61 (active).
With DYRK3 (GeneID 8444), technical replicate 1 the deposit lists viability, normalised (%) = 89.5.
For DYRK3 (GeneID 8444), technical replicate 2, the entry reads viability, normalised (%) = 87.5.
For DYRK3 (GeneID 8444), technical replicate 3, the values are viability, normalised (%) = 97.2.

3 successive reagents already listed:
CARD14 (GeneID 79092), technical replicate 3 — viability, normalised (%): 60.3 (active)
DDX18 (GeneID 8886), technical replicate 1 — viability, normalised (%): 58.5 (active)
DDX18 (GeneID 8886), technical replicate 2 — viability, normalised (%): 71.5 (active)

Additional results follow:
CDK8 (GeneID 1024), technical replicate 1 gave viability, normalised (%) = 95.2.
For CDK8 (GeneID 1024), technical replicate 2, the values are viability, normalised (%) = 84.2.
With CDK8 (GeneID 1024), technical replicate 3, the entry reads viability, normalised (%) = 82.
AURKC (GeneID 6795), technical replicate 1 scored viability, normalised (%) = 79.6 (active).
AURKC (GeneID 6795), technical replicate 1 showed viability, normalised (%) = 51.4 (active).
AURKC (GeneID 6795), technical replicate 2 scored viability, normalised (%) = 76.1 (active).
With AURKC (GeneID 6795), technical replicate 2, the values are viability, normalised (%) = 56.7 (active).
AURKC (GeneID 6795), technical replicate 3 scored viability, normalised (%) = 63.1 (active).
With AURKC (GeneID 6795), technical replicate 3 the deposit lists viability, normalised (%) = 53.9 (active).
DGKZ (GeneID 8525), technical replicate 1 scored viability, normalised (%) = 103.
DGKZ (GeneID 8525), technical replicate 2 showed viability, normalised (%) = 74.4 (active).
With DGKZ (GeneID 8525), technical replicate 3, the entry reads viability, normalised (%) = 95.4.
For PRKD1 (GeneID 5587), technical replicate 1, the entry reads viability, normalised (%) = 75.7 (active).
With PRKD1 (GeneID 5587), technical replicate 2 the deposit lists viability, normalised (%) = 77.7 (active).
With PRKD1 (GeneID 5587), technical replicate 3, the values are viability, normalised (%) = 74.2 (active).
With UBE2V2 (GeneID 7336), technical replicate 1, the values are viability, normalised (%) = 70.4 (active).
UBE2V2 (GeneID 7336), technical replicate 2 gave viability, normalised (%) = 91.
UBE2V2 (GeneID 7336), technical replicate 3 showed viability, normalised (%) = 75.4 (active).
With NEIL2 (GeneID 252969), technical replicate 1, the values are viability, normalised (%) = 61.4 (active).
NEIL2 (GeneID 252969), technical replicate 2 scored viability, normalised (%) = 58.6 (active).
For NEIL2 (GeneID 252969), technical replicate 3, the entry reads viability, normalised (%) = 89.1.
